In paper doi:10.1101/2023.06.28.546937:
Where two headings read alike, the source gives them in different places. No constants are given. Whether binding was seen depends on the method and setting. A result given as binding can be weak or reduced; the word gives no strength. Sequences can lack the tags named with a protein.

Tests used:
Assay in all cases: pull-down
[1] = target: GST-Doc1 (Dorsocross1) (Drosophila)
[2] = target: GST-Doc1 (Dorsocross1) (Drosophila); remark: listed apart in the source
[3] = target: GST-Doc1 (Dorsocross1) (Drosophila); remark: listed apart in the source

| binding [1] | binding [2] | binding [3] | Binder |
| --- | --- | --- | --- |
| binds | binds | – | MBP-Tin homeodomain, wild-type (domain or fragment, UniProt P22711 301-360) KRKPRVLFSQAQVLELECRFRLKKYLTGAEREIIAQKLNLSATQVKIWFQNRRYKSKRGD |
| – | binds | binds | MBP-Tin homeodomain R321N (domain or fragment, UniProt P22711 301-360) KRKPRVLFSQAQVLELECRFNLKKYLTGAEREIIAQKLNLSATQVKIWFQNRRYKSKRGD |
